Consider 3 substances from publication PMC6168287.

In assay [1] the target is T1, subunit ND1 of respiratory complex I from Yarrowia lipolytica (Yarrowia lipolytica) (UniProt Q9B6E8).
T1 sequence: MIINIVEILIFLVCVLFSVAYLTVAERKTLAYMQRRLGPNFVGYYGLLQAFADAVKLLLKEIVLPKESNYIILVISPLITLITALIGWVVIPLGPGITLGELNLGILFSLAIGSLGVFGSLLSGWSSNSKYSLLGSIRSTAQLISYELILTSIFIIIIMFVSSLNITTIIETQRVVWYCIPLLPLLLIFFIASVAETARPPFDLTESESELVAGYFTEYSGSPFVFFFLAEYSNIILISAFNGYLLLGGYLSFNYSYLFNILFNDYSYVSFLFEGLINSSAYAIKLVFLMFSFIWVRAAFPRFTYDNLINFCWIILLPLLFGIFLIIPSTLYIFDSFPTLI
Description: cryo-EM structure; complex I purified from Y. lipolytica, deactive state, 2 μM in 20 mM Tris-HCl, pH 7.2, 100 mM NaCl, 1 mM EDTA, 0.025% DDM; map of 4.3 Å from 124,626 particles; both purified.

The target of assay [2] is T2, subunit ND3 of respiratory complex I from Yarrowia lipolytica (Yarrowia lipolytica) (UniProt Q9B6C7).
T2 sequence: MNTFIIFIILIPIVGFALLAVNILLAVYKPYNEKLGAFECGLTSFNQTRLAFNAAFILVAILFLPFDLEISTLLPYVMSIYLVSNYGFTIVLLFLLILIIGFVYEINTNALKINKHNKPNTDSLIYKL
Described as above.

The target in assay [3] is T3, accessory subunit N7BM of respiratory complex I from Yarrowia lipolytica (Yarrowia lipolytica) (UniProt Q6CG53).
T3 sequence: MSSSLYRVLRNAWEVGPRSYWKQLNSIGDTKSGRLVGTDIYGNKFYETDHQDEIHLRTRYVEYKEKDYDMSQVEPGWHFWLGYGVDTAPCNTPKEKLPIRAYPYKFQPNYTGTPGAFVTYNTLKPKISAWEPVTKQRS
Description: cryo-EM structure; 3D class of the deactive data set with an extra density (ST1) protruding from the side of the matrix arm; map of 5.2 Å from 36,723 particles; both purified.

No constants are given. Whether binding was seen depends on the method and setting. Binding calls can cover weak binding; strength is not graded here.

Turning to “PSST subunit of respiratory complex I from Yarrowia lipolytica”, in assay [1], the binding result was “binds”.

As to “accessory subunit NUFM of respiratory complex I from Yarrowia lipolytica”, the binding result in assay [2] was “binds”.

For the substance “accessory sulfur transferase subunit ST1 of Yarrowia lipolytica complex I”, the binding entry in assay [3] is “binds”.
